Tested on: human non-small cell lung cancer cell line A427
Assay: A427 tumor cell proliferation (confluence) assay, IncuCyte S3 live cell imaging
Conditions: A-427, 120 h, read-out: Inhibition of cell confluency IC50 ± SD, A427 cells, last time point (approx. 5 d), n = 3

IC50: 16 µM
Structure (SMILES): O=C(CCCN1CCC(O)(c2ccc(Cl)cc2)CC1)c1ccc(F)cc1 [haloperidol, reference compound]

Source: paper PMC9303367, “Synthesis of Aminoethyl‐Substituted Piperidine Derivatives as σ1 Receptor Ligands with Antiproliferative Properties” (Chemmedchem, 2022)
